Laboratory results reported in article doi:10.1101/2022.09.30.510086.
Results are given in words; binding and its absence hold for the method and conditions named. Binding seen in cells or lysates may run through a third protein. Some entries that bind do so weakly or less than the wild type. Sequences can lack the tags named with a protein.

What was measured:
Assay in all cases: co-IP
[1] = target: T1, HA-STIL (SCL/TAL1 interrupting locus protein) (UniProt Q15468)
T1 sequence: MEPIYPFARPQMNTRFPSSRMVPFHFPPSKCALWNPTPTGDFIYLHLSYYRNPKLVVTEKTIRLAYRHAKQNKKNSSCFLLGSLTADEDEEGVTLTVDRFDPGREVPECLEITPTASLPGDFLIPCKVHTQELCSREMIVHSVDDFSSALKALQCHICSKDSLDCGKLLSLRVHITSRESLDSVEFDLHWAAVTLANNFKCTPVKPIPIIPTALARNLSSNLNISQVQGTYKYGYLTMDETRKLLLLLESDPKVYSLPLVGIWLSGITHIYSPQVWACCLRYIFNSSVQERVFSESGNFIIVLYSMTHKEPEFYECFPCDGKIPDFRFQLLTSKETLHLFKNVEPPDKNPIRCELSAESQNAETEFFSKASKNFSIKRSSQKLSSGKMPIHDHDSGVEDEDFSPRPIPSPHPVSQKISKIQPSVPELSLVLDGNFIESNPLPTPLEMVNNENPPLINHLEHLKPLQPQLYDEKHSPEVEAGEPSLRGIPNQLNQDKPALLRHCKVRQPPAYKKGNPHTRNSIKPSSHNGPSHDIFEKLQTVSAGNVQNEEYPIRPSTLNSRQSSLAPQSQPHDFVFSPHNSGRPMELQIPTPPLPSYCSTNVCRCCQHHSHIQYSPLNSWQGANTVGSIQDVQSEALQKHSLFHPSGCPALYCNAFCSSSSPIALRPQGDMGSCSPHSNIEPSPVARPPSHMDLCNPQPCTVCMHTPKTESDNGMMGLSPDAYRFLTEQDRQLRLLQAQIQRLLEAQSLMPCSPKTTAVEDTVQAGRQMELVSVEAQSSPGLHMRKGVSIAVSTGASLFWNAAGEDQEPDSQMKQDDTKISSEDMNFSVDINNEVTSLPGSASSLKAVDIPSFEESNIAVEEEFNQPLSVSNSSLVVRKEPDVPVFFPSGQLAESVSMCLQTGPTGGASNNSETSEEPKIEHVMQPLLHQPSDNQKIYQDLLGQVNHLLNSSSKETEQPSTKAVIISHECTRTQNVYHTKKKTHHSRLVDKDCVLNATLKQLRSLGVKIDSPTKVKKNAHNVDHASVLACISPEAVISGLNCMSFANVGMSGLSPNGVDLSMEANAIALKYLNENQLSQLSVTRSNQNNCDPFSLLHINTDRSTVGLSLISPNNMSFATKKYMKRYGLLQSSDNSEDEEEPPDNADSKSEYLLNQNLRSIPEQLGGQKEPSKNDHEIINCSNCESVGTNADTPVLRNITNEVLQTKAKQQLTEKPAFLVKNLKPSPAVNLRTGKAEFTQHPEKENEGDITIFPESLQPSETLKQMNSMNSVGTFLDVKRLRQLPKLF

[2] = target: T2, GFP-tagged McIdas (not stated (human or mouse cDNA cloned)) (UniProt D6RGH6)
T2 sequence: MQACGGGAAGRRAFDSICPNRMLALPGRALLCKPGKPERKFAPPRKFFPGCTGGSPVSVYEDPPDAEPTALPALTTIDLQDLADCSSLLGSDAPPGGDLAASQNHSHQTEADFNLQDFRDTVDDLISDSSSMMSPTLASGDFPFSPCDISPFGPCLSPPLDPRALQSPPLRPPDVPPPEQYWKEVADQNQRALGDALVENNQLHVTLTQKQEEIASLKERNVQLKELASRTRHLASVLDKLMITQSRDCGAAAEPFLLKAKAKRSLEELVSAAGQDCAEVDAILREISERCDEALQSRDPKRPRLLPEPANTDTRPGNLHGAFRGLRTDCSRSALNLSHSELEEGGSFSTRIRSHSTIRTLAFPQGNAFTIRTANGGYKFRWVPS

[3] = target: T3, McIdas-HA (UniProt D6RGH6)
T3 sequence: T2 sequence

GFP-tagged McIdas (from UniProt D6RGH6 1-385)
binding [1]: no binding

B1: myc-PLK4 (Polo-like kinase 4) (enzyme, UniProt O00444 1-970)
chain: MATCIGEKIEDFKVGNLLGKGSFAGVYRAESIHTGLEVAIKMIDKKAMYKAGMVQRVQNEVKIHCQLKHPSILELYNYFEDSNYVYLVLEMCHNGEMNRYLKNRVKPFSENEARHFMHQIITGMLYLHSHGILHRDLTLSNLLLTRNMNIKIADFGLATQLKMPHEKHYTLCGTPNYISPEIATRSAHGLESDVWSLGCMFYTLLIGRPPFDTDTVKNTLNKVVLADYEMPSFLSIEAKDLIHQLLRRNPADRLSLSSVLDHPFMSRNSSTKSKDLGTVEDSIDSGHATISTAITASSSTSISGSLFDKRRLLIGQPLPNKMTVFPKNKSSTDFSSSGDGNSFYTQWGNQETSNSGRGRVIQDAEERPHSRYLRRAYSSDRSGTSNSQSQAKTYTMERCHSAEMLSVSKRSGGGENEERYSPTDNNANIFNFFKEKTSSSSGSFERPDNNQALSNHLCPGKTPFPFADPTPQTETVQQWFGNLQINAHLRKTTEYDSISPNRDFQGHPDLQKDTSKNAWTDTKVKKNSDASDNAHSVKQQNTMKYMTALHSKPEIIQQECVFGSDPLSEQSKTRGMEPPWGYQNRTLRSITSPLVAHRLKPIRQKTKKAVVSILDSEEVCVELVKEYASQEYVKEVLQISSDGNTITIYYPNGGRGFPLADRPPSPTDNISRYSFDNLPEKYWRKYQYASRFVQLVRSKSPKITYFTRYAKCILMENSPGADFEVWFYDGVKIHKTEDFIQVIEKTGKSYTLKSESEVNSLKEEIKMYMDHANEGHRICLALESIISEEERKTRSAPFFPIIIGRKPGSTSSPKALSPPPSVDSNYPTRERASFNRMVMHSAASPTQAPILNPSMVTNEGLGLTTTASGTDISSNSLKDCLPKSAQLLKSVFVKNVGWATQLTSGAVWVQFNDGSQLVVQAGVSSISYTSPNGQTTRYGENEKLPDYIKQKLQCLSSILLMFSNPTPNFH
binding [2]: binds

B2: HA-STIL (SCL/TAL1 interrupting locus protein) (protein, UniProt Q15468 1-1287)
chain: T1 sequence
binding [2]: no binding

B3: SAS6-GFP (Spindle assembly abnormal protein 6 homolog) (protein, UniProt Q6UVJ0 1-657)
chain: MSQVLFHQLVPLQVKCKDCEERRVSIRMSIELQSVSNPVHRKDLVIRLTDDTDPFFLYNLVISEEDFQSLKFQQGLLVDFLAFPQKFIDLLQQCTQEHAKEIPRFLLQLVSPAAILDNSPAFLNVVETNPFKHLTHLSLKLLPGNDVEIKKFLAGCLKCSKEEKLSLMQSLDDATKQLDFTRKTLAEKKQELDKLRNEWASHTAALTNKHSQELTNEKEKALQAQVQYQQQHEQQKKDLEILHQQNIHQLQNRLSELEAANKDLTERKYKGDSTIRELKAKLSGVEEELQRTKQEVLSLRRENSTLDVECHEKEKHVNQLQTKVAVLEQEIKDKDQLVLRTKEAFDTIQEQKVVLEENGEKNQVQLGKLEATIKSLSAELLKANEIIKKLQGDLKTLMGKLKLKNTVTIQQEKLLAEKEEKLQKEQKELQDVGQSLRIKEQEVCKLQEQLEATVKKLEESKQLLKNNEKLITWLNKELNENQLVRKQDVLGPSTTPPAHSSSNTIRSGISPNLNVVDGRLTYPTCGIGYPVSSAFAFQNTFPHSISAKNTSHPGSGTKVQFNLQFTKPNASLGDVQSGATISMPCSTDKENGENVGLESKYLKKREDSIPLRGLSQNLFSNSDHQRDGTLGALHTSSKPTALPSASSAYFPGQLPNS
binding [3]: no binding

B4: SAS6-SNAP-Flag (protein, UniProt Q6UVJ0 1-657)
chain: B3 chain
binding [2]: no binding
